The assay deals with UL8-V5-TbID (pcDNA3.1-UL8-V5-TbID) (human cytomegalovirus, strain TB40/E). As to the kind of experiment: proximity labelling; BioID-MS with TurboID: HEK293 transfected with UL8-V5-TbID (control UL8-V5) for 48 hours, 50 µM biotin for 6 hours, streptavidin magnetic beads, mass spectrometry, SAINT filtering.

These are yes or no findings as the source states them, for the method shown. In cells and extracts the contact can be indirect. These calls come from enrichment with a bait or labelling near it, and not all partners need be listed.

B1: phospholipase C beta 3 (PLCB3), endogenous in HEK293 (protein, UniProt Q01970 1-1234)
chain: MAGAQPGVHALQLEPPTVVETLRRGSKFIKWDEETSSRNLVTLRVDPNGFFLYWTGPNMEVDTLDISSIRDTRTGRYARLPKDPKIREVLGFGGPDARLEEKLMTVVSGPDPVNTVFLNFMAVQDDTAKVWSEELFKLAMNILAQNASRNTFLRKAYTKLKLQVNQDGRIPVKNILKMFSADKKRVETALESCGLKFNRSESIRPDEFSLEIFERFLNKLCLRPDIDKILLEIGAKGKPYLTLEQLMDFINQKQRDPRLNEVLYPPLRPSQARLLIEKYEPNQQFLERDQMSMEGFSRYLGGEENGILPLEALDLSTDMTQPLSAYFINSSHNTYLTAGQLAGTSSVEMYRQALLWGCRCVELDVWKGRPPEEEPFITHGFTMTTEVPLRDVLEAIAETAFKTSPYPVILSFENHVDSAKQQAKMAEYCRSIFGDALLIEPLDKYPLAPGVPLPSPQDLMGRILVKNKKRHRPSAGGPDSAGRKRPLEQSNSALSESSAATEPSSPQLGSPSSDSCPGLSNGEEVGLEKPSLEPQKSLGDEGLNRGPYVLGPADREDEEEDEEEEEQTDPKKPTTDEGTASSEVNATEEMSTLVNYIEPVKFKSFEAARKRNKCFEMSSFVETKAMEQLTKSPMEFVEYNKQQLSRIYPKGTRVDSSNYMPQLFWNVGCQLVALNFQTLDVAMQLNAGVFEYNGRSGYLLKPEFMRRPDKSFDPFTEVIVDGIVANALRVKVISGQFLSDRKVGIYVEVDMFGLPVDTRRKYRTRTSQGNSFNPVWDEEPFDFPKVVLPTLASLRIAAFEEGGKFVGHRILPVSAIRSGYHYVCLRNEANQPLCLPALLIYTEASDYIPDDHQDYAEALINPIKHVSLMDQRARQLAALIGESEAQAGQETCQDTQSQQLGSQPSSNPTPSPLDASPRRPPGPTTSPASTSLSSPGQRDDLIASILSEVAPTPLDELRGHKALVKLRSRQERDLRELRKKHQRKAVTLTRRLLDGLAQAQAEGRCRLRPGALGGAADVEDTKEGEDEAKRYQEFQNRQVQSLLELREAQVDAEAQRRLEHLRQALQRLREVVLDANTTQFKRLKEMNEREKKELQKILDRKRHNSISEAKMRDKHKKEAELTEINRRHITESVNSIRRLEEAQKQRHDRLVAGQQQVLQQLAEEEPKLLAQLAQECQEQRARLPQEIRRSLLGEMPEGLGDGPLVACASNGHAPGSSGHLSGADSESQEENTQL
For B1, the binding entry is “binds”.

For the origin of these results see paper PMC10617580.
